{
  "source": "patent US10017480B2",
  "about": "“Compounds having a selective PDE4D inhibiting activity” (UNIVERSITÂ DEGLI STUDI DI GENOVA, priority 2014, dated 2018)",
  "test_system": "spatial object memory performance",
  "test": "OLT dose-response experiment",
  "type": "in vivo",
  "details": "mean (SEM)",
  "data": [
    {"smiles": "OC(CN1CCOCC1)Cn1ccc(-c2ccc(OC(F)F)c(OC3CCCC3)c2)n1", "note": "(centres unmarked) [XXIIa, 1-{3-[3-(cyclopentyloxy)-4-(difluoromethoxy)phenyl]-1H-pyrazol-1-yl}-3-morpholin-4-ylpropan-2-ol]", "values": [
      {"measurement": "e1 (mean exploration in T1)", "setting": "0.0003 mg/kg", "value": "28.51 (3.13) s"},
      {"measurement": "e2 (mean exploration in T2)", "setting": "0.0003 mg/kg", "value": "25.91 (2.73) s"},
      {"measurement": "e1 (mean exploration in T1)", "setting": "0.001 mg/kg", "value": "33.78 (2.82) s"},
      {"measurement": "e2 (mean exploration in T2)", "setting": "0.001 mg/kg", "value": "29.07 (2.30) s"},
      {"measurement": "e1 (mean exploration in T1)", "setting": "0.003 mg/kg", "value": "37.85 (4.62) s"},
      {"measurement": "e2 (mean exploration in T2)", "setting": "0.003 mg/kg", "value": "35.82 (2.82) s"},
      {"measurement": "e1 (mean exploration in T1)", "setting": "0.01 mg/kg", "value": "34.24 (3.12) s"},
      {"measurement": "e2 (mean exploration in T2)", "setting": "0.01 mg/kg", "value": "30.32 (2.14) s"}
    ]}
  ]
}
